Values from PubChem BioAssay AID1259424 (University of Nebraska Medical Center, 2018).
Purpose: 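Seek colon cancer survival genes behaving like KSR1, using a six-gene signature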 (primary screen). Cells: human HCT116 colon cancer cells. Knock-down reagent: siRNA pool against human genes, 50 nM. Detection: 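Six signature mRNAs by branched-DNA multiplex assay, scaled to two housekeeping genes and non-targeting median, log2; matched to mean KSR1 knockdown profile by Pearson correlation and euclidean distance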. Reading the numbers: mean correlation with KSR1 profile: higher = expression change more like KSR1 knockdown; mean distance from KSR1 profile: higher = expression change less like KSR1 knockdown.
Here is one part, drawn at random, of about 14,000 reagents. 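Higher correlation or smaller distance means closer resemblance to KSR1 loss; control wells, including KSR1 knockdowns, recur on many plates.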 Further read-outs or replicates are left out here. Not stated in the record: the time to read-out.

CITED1 [SID363995151] → mean correlation with KSR1 profile: 0.321; mean distance from KSR1 profile: 1.64
KDM4B [SID363999254] → mean correlation with KSR1 profile: -0.491; mean distance from KSR1 profile: 2.99
NFIL3 [SID363996294] → mean correlation with KSR1 profile: -0.41; mean distance from KSR1 profile: 1.78
AVEN [SID364001639] → mean correlation with KSR1 profile: -0.198; mean distance from KSR1 profile: 2.85
RPL34 [SID363992278] → mean correlation with KSR1 profile: -0.209; mean distance from KSR1 profile: 1.96
ETFA [SID363991462] → mean correlation with KSR1 profile: -0.612; mean distance from KSR1 profile: 2.69
FBXL20 [SID364004248] → mean correlation with KSR1 profile: -0.335; mean distance from KSR1 profile: 3.14
SPIC [SID364004711] → mean correlation with KSR1 profile: 0.789; mean distance from KSR1 profile: 1.54
TTF1 [SID363997986] → mean correlation with KSR1 profile: 0.0551; mean distance from KSR1 profile: 2.87
NTSR1 [SID363993703] → mean correlation with KSR1 profile: 0.717; mean distance from KSR1 profile: 1.3
GTF2IRD2 [SID364004831] → mean correlation with KSR1 profile: 0.00239; mean distance from KSR1 profile: 3.17
PHRF1 [SID364001890] → mean correlation with KSR1 profile: -0.755; mean distance from KSR1 profile: 1.7
SCGB1D2 [SID363997343] → mean correlation with KSR1 profile: -0.118; mean distance from KSR1 profile: 2.68
SIX1 [SID363996838] → mean correlation with KSR1 profile: 0.144; mean distance from KSR1 profile: 1.53
PCDHB3 [SID364001264] → mean correlation with KSR1 profile: 0.522; mean distance from KSR1 profile: 1.28
LASP1 [SID363996978] → mean correlation with KSR1 profile: -0.408; mean distance from KSR1 profile: 3.3
GP9 [SID363991510] → mean correlation with KSR1 profile: -0.196; mean distance from KSR1 profile: 2.82
STOML2 [SID363998520] → mean correlation with KSR1 profile: -0.433; mean distance from KSR1 profile: 3.5
ZMYND10 [SID363999700] → mean correlation with KSR1 profile: 0.417; mean distance from KSR1 profile: 1.6
